These are yes or no findings as the source states them, for the method shown. In cells and extracts the contact can be indirect. Sequences can lack the tags named with a protein.
Target: T1, FLAG-DDX28 (DEAD box protein 28, C-terminal 3x FLAG) (human) (UniProt Q9NUL7)
T1 sequence: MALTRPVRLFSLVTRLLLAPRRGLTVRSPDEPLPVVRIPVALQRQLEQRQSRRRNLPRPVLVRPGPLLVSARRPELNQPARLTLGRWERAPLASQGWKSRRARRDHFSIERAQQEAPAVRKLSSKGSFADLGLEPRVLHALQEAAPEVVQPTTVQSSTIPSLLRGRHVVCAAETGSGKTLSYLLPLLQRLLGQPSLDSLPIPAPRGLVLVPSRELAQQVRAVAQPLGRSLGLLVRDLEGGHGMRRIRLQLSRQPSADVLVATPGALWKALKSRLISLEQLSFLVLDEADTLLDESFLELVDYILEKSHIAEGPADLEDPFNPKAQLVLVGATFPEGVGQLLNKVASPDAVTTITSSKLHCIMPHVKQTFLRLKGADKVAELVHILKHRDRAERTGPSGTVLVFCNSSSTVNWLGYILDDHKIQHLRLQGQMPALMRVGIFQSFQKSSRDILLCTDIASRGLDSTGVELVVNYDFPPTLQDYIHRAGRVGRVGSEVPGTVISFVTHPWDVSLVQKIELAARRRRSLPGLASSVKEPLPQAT
Assay: co-IP

Chains of the proteins cited; added tags and fusions are not shown.
UniProt Q16665: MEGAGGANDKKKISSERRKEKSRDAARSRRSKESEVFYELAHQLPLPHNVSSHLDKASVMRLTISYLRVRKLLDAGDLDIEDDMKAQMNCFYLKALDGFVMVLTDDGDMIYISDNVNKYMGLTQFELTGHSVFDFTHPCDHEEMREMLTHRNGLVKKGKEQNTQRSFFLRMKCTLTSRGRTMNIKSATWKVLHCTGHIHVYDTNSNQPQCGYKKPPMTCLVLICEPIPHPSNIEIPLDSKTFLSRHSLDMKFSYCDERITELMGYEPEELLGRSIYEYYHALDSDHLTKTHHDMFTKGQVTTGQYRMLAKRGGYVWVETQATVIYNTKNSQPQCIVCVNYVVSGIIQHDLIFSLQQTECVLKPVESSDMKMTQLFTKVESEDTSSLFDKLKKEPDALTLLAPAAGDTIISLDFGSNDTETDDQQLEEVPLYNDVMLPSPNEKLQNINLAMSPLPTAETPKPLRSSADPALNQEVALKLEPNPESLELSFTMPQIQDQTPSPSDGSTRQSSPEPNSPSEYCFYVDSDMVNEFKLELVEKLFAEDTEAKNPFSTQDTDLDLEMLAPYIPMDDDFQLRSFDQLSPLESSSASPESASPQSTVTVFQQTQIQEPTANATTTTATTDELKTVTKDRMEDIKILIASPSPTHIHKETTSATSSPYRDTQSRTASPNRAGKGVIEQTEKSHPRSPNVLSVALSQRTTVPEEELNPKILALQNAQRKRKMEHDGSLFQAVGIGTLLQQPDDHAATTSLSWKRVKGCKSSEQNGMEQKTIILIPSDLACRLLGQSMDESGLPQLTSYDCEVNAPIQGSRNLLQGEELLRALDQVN

- binding: no binding
Substance: HA-HIF-1α (from UniProt Q16665 1-826)
